PubChem BioAssay AID330 (DTP/NCI, 2004)
The list shows only some results of the screen, not a fair sample: it is rich in T/C values a quarter to a half above the control, in often repeated tests (any T/C) and in doses without a T/C. Other doses and runs of a compound stand elsewhere. T/C gives the treated animals as a percentage of the vehicle group. Some entries give survivors of the animals treated and no T/C: the source files T/C as zero there, which appears to mark a toxic dose or a test without result, not a measured value. Some survivor counts are full or nearly so, which does not show that the dose was tolerated: survival well below the control is almost never listed, so the zero probably covers shortened survival too. Survivors were counted at the toxicity check, usually on the fifth day, unless a day is given; later deaths do not show. Schedule codes are those of the source, read here as Q, the interval in days (D) or hours (H), X, the number of doses. Some entries hold several experiments; their values stand side by side, smallest first. Some molecules as drawn cover several salts, stereoisomers or complexes of the source; a dose is that of the sample tested. For survival time, the PubChem record calls one and a half times the control and up active, and a quarter to a half above the control has no call in these data; cut-offs in other NCI protocols can differ. Some T/C values are followed by the survivors on the day toxicity was checked, most often the fifth; where none is given, no animal had died by that day.

System: P388 leukemia ip, CD2F1 mice, survival T/C
Experiment: NCI In Vivo Anticancer Drug Screen. Data for tumor model P388 Leukemia (intraperitoneal) in CD2F1 (CDF1) mice
Settings: T/C endpoint: median survival time, higher T/C = longer survival
[1] = dose: 100.0 mg/kg/injection, schedule: Q01DX009 (ip), vehicle: saline with Tween-80
[2] = dose: 200.0 mg/kg/injection, schedule: Q01DX009 (ip), vehicle: saline with Tween-80
[3] = dose: 400.0 mg/kg/injection, schedule: Q01DX009 (ip), vehicle: saline with Tween-80
[4] = dose: 100.0 mg/kg/injection, schedule: Q01DX005 (ip), vehicle: saline
[5] = dose: 200.0 mg/kg/injection, schedule: Q01DX005 (ip), vehicle: saline
[6] = dose: 200.0 mg/kg/injection, schedule: Q01DX009 (ip), vehicle: Klucel (hydroxypropylcellulose) (HPC)
[7] = dose: 12.5 mg/kg/injection, schedule: Q01DX005 (ip), vehicle: saline with Tween-80
[8] = dose: 50.0 mg/kg/injection, schedule: Q01DX005 (ip), vehicle: saline with Tween-80
[9] = dose: 100.0 mg/kg/injection, schedule: Q01DX005 (ip), vehicle: saline with Tween-80
[10] = dose: 200.0 mg/kg/injection, schedule: Q01DX005 (ip), vehicle: saline with Tween-80
[11] = dose: 50.0 mg/kg/injection, schedule: Q01DX009 (ip), vehicle: saline with Tween-80
[12] = dose: 25.0 mg/kg/injection, schedule: Q01DX009 (ip), vehicle: saline with Tween-80
[13] = dose: 6.25 mg/kg/injection, schedule: Q01DX009 (ip), vehicle: Klucel (hydroxypropylcellulose) (HPC)
[14] = dose: 25.0 mg/kg/injection, schedule: Q01DX009 (ip), vehicle: Klucel (hydroxypropylcellulose) (HPC)
[15] = dose: 50.0 mg/kg/injection, schedule: Q01DX009 (ip), vehicle: Klucel (hydroxypropylcellulose) (HPC)

For `CN(C)CCCN=c1c2ccccc2n(O)c2cccc([N+](=O)[O-])c12`, the T/C (dose: 3.12 mg/kg/injection, schedule: Q01DX009 (ip), vehicle: saline with Tween-80) was 132 % of control, the T/C (dose: 6.25 mg/kg/injection, schedule: Q01DX009 (ip), vehicle: saline with Tween-80) was 140 % of control and the T/C (dose: 6.25 mg/kg/injection, schedule: Q01DX009 (ip), vehicle: saline) was 131 % of control. For the same compound, the survivor count (dose: 12.5 mg/kg/injection, schedule: Q01DX009 (ip), vehicle: saline) was 6 of 6, the survivor count (dose: 50.0 mg/kg/injection, schedule: Q01DX009 (ip), vehicle: saline) was 0 of 6 and the survivor count (dose: 100.0 mg/kg/injection, schedule: Q01DX009 (ip), vehicle: saline) was 0 of 6. The survivor count (dose: 200.0 mg/kg/injection, schedule: Q01DX009 (ip), vehicle: saline) was 0 of 6.

`CCCOC(=O)c1nc(N(CC2CCCCC2)C(=O)NC)sc1/N=C/c1ccccc1` was tested, and the survivor count [1] was 6 of 6, the survivor count [2] was 6 of 6 and the survivor count [3] was 6 of 6.

For `S=c1[nH]c(N2CCOCC2)ncc1-c1ccccc1`, the survivor count (dose: 400.0 mg/kg/injection, schedule: Q04DX002 (ip), vehicle: saline with Tween-80) was 6 of 6.

With `CC(=O)C1CO1` (stereo not drawn) the survivor count [4] was 5 of 5 and the survivor count [5] was 0 of 5.

With `COc1cccc2c1C(=O)c1c(O)c3c(c(O)c1C2=O)C[C@@](O)(C(C)=O)C[C@@H]3OC1CC(O)C(O)C(C)O1` (stereo partly drawn) the T/C (dose: 25.0 mg/kg/injection, schedule: Q04DX003 (ip), vehicle: water) was 127 % of control and the T/C (dose: 50.0 mg/kg/injection, schedule: Q04DX003 (ip), vehicle: water) was 147 % of control [5 of 6 alive].

`CC(C)CNC(=O)c1ccc(OCC(O)CNC(C)(C)C)c(Cl)c1` (stereo not drawn) was tested, and the survivor count (dose: 400.0 mg/kg/injection, schedule: Q04DX003 (ip), vehicle: Klucel (hydroxypropylcellulose) (HPC)) was 0 of 6.

In the case of `CN(C)CCOC1=Nc2ccccc2O/C1=C/c1ccccc1`, the survivor count [6] is reported as 0 of 6.

`O=C(OC1(c2nccc3ccccc23)CCN(Cc2ccccc2)CC1)c1ccccc1` was tested, and the survivor count [1] was 6 of 6 and the survivor count [2] was 6 of 6.

With `O=[N+]([O-])C1(Cl)CCC(Cl)([N+](=O)[O-])CC1` (stereo not drawn) the survivor count (dose: 400.0 mg/kg/injection, schedule: Q01DX001 (ip), vehicle: Klucel (hydroxypropylcellulose) (HPC)) was 0 of 6.

For `CCN(CC)CC.[CH-]1CCCCC1.[CH-]1CCCCC1.[CH-]1CCCCC1.[Cl-].[Cl-].[Sn+4]`, the survivor count [7] was 3 of 6, the survivor count [8] was 0 of 6 and the survivor count [9] was 0 of 6. The survivor count [10] was 0 of 6.

`CCC/C(=N\NC(=S)N(C)C)c1ccccn1` was tested, and the survivor count [9] was 3 of 6 and the survivor count [10] was 0 of 6.

With `CCOC(=O)N1C(=O)C2C3CCC(C2C1=O)C1C2C(=O)N(C(=O)OCC)C(=O)C2C31` (stereo not drawn) the T/C [11] was 127 % of control, the T/C [1] was 142 % of control and the survivor count [2] was 5 of 6.

`COc1cccc2c1C(=O)c1c(O)c3c(c(O)c1C2=O)C[C@@](O)(C(=O)CO)C[C@@H]3OC1CC(NC(=O)C(N)CC(C)C)C(O)C(C)O1` (stereo partly drawn) was tested, and the T/C (dose: 3.12 mg/kg/injection, schedule: Q04DX003 (ip), vehicle: saline) was 135 % of control, the T/C (dose: 6.25 mg/kg/injection, schedule: Q04DX003 (ip), vehicle: saline) was 125 % of control and the T/C (dose: 12.5 mg/kg/injection, schedule: Q04DX003 (ip), vehicle: saline) was 127 and 137 % of control. The T/C (dose: 25.0 mg/kg/injection, schedule: Q04DX003 (ip), vehicle: saline) was 147 % of control and the T/C (dose: 50.0 mg/kg/injection, schedule: Q04DX003 (ip), vehicle: saline) was 131 and 141 % of control.

In the case of `CC(NNC(=S)N1CCCCCC1)c1cc2ccccc2cn1` (stereo not drawn), the T/C [9] is reported as 125 % of control and the T/C [10] is reported as 141 % of control.

For `O=C1[C@H]2CCC[C@H]2[C@H]2CCC[C@@H]12`, the T/C [11] was 125 % of control and the survivor count [3] was 3 of 6.

With `CCCCCCCCCCCCCCCCCCCCCC(=O)Nc1ccn(C2OC(CO)C(O)C2O)c(=O)n1` (stereo not drawn) the T/C (dose: 0.39 mg/kg/injection, schedule: Q01DX009 (ip), vehicle: saline with Tween-80) was 132 % of control, the T/C (dose: 0.78 mg/kg/injection, schedule: Q01DX009 (ip), vehicle: saline with Tween-80) was 138 % of control and the T/C (dose: 12.5 mg/kg/injection, schedule: Q01DX009 (ip), vehicle: saline with Tween-80) was 144 % of control. For the same compound, the T/C [12] was 117, 161, 309 % of control, the survivor count [12] was 6 of 6 and the survivor count [11] was 6 of 6. The survivor count [1] was 6 of 6 and the survivor count [2] was 4 of 6.

For `Cc1ccc(N=C2c3ccccc3-c3ccc(NC(=O)c4ccccc4)cc32)cc1`, the survivor count [7] was 6 of 6, the survivor count (dose: 25.0 mg/kg/injection, schedule: Q01DX005 (ip), vehicle: saline with Tween-80) was 6 of 6 and the survivor count [8] was 6 of 6. For the same compound, the survivor count [9] was 5 of 5 and the survivor count [10] was 5 of 5.

`COC1=C(OC)C(=O)C(SCCCCCCC2CCCCC2)=C(Cl)C1=O` was tested, and the survivor count (dose: 3.13 mg/kg/injection, schedule: Q01DX009 (ip), vehicle: Klucel (hydroxypropylcellulose) (HPC)) was 5 of 6, the survivor count [13] was 5 of 6 and the survivor count (dose: 12.5 mg/kg/injection, schedule: Q01DX009 (ip), vehicle: Klucel (hydroxypropylcellulose) (HPC)) was 3 of 6. The survivor count [14] was 3 of 6 and the survivor count [15] was 0 of 6.

`Cc1cccc(Cl)c1NC1=NCCN1C(=O)CC(=O)c1ccccc1` was tested, and the survivor count [13] was 3 of 6, the survivor count [14] was 4 of 6 and the survivor count [15] was 2 of 6. For the same compound, the survivor count (dose: 100.0 mg/kg/injection, schedule: Q01DX009 (ip), vehicle: Klucel (hydroxypropylcellulose) (HPC)) was 2 of 6 and the survivor count [6] was 1 of 6.

For `COc1ccc(O)c2c1C(=O)C=CC2=O`, the survivor count (dose: 1.6 mg/kg/injection, schedule: Q01DX001 (ip), vehicle: saline with Tween-80) was 4 of 6, the survivor count (dose: 6.25 mg/kg/injection, schedule: Q01DX001 (ip), vehicle: saline with Tween-80) was 0 of 5 and the survivor count (dose: 12.5 mg/kg/injection, schedule: Q01DX001 (ip), vehicle: saline with Tween-80) was 0 of 5. The survivor count (dose: 25.0 mg/kg/injection, schedule: Q01DX001 (ip), vehicle: saline with Tween-80) was 0 of 5, the survivor count (dose: 50.0 mg/kg/injection, schedule: Q01DX001 (ip), vehicle: saline with Tween-80) was 0 of 5 and the survivor count (dose: 100.0 mg/kg/injection, schedule: Q01DX001 (ip), vehicle: saline with Tween-80) was 0 of 6. For the same compound, the survivor count (dose: 200.0 mg/kg/injection, schedule: Q01DX001 (ip), vehicle: saline with Tween-80) was 0 of 6 and the survivor count (dose: 400.0 mg/kg/injection, schedule: Q01DX001 (ip), vehicle: saline with Tween-80) was 0 of 6.

`NCCn1[nH]c(=O)c2ncccc2c1=O` was tested, and the survivor count (dose: 240.0 mg/kg/injection, schedule: Q01DX005 (ip), vehicle: saline with Tween-80) was 2 of 6.

With `NCC(c1ccccc1)C1CCCCC1` (stereo not drawn) the survivor count [4] was 3 of 6 and the survivor count [5] was 0 of 6.

For `O=C1O/C(=C(/C(=O)O)c2ccc(O)cc2)C(O)=C1c1cc2c3c(c(O)cc(C4=C(O)/C(=C(\C(=O)O)c5ccc(O)cc5)OC4=O)c3c1)OC2=O`, the survivor count (dose: 48.0 mg/kg/injection, schedule: Q01DX005 (ip), vehicle: DMSO) was 3 of 6, the survivor count (dose: 82.0 mg/kg/injection, schedule: Q01DX005 (ip), vehicle: DMSO) was 5 of 6 and the survivor count (dose: 96.0 mg/kg/injection, schedule: Q01DX005 (ip), vehicle: DMSO) was 0 of 6.

With `CC(=O)N(C(C)=O)N(C(C)=O)c1cc2ccccc2cn1` the survivor count [10] was 4 of 6.

In the case of `O=C1NC2(CCCC2)C(=O)N1CCCN(CCCl)CCCl`, the T/C (dose: 1.5 mg/kg/injection, schedule: Q01DX005 (ip), vehicle: saline) is reported as 141 % of control and the survivor count (dose: 24.0 mg/kg/injection, schedule: Q01DX005 (ip), vehicle: saline) is reported as 4 of 6 and 6 of 6.
